Results deposited as PubChem BioAssay AID1259254 (NCATS, 2017)

Assay: 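Gene knock-downs that lead to re-replication, shown by excess G2 DNA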 (primary screen)
Cell system: human HCT116 colorectal cancer cells
Knock-down reagent: single siRNA against human genes
Time to read-out: 3 days
Detection: 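Imaged Hoechst DNA stain sorts each cell into a cycle phase by DNA amount; per plate, G2 fraction set to 0% for non-targeting and 100% for GMNN siRNA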
Reading the numbers: G2 robust z-score and G2 cells, % of GMNN control: higher = more G2 cells, more excess DNA replication; raw share of cells in G2: higher = larger share of cells with G2 DNA content
Hit rule: 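Active siRNAs have a G2 robust z of 5 or more median absolute deviations over the median, which in these data means about 38% or higher of GMNN control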
Shown is one part, drawn at random, of about 59,000 deposited reagents. About 1,550 of all reagents (2.6%) were called active. 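G2 share is only a proxy for re-replication; each gene was hit by three separate siRNAs, and active genes were retested.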 Raw values vary from plate to plate and are shown uncorrected. Reagents against one gene are numbered here. No sequences are given here. Not given: the amount of reagent.

gene	reagent	G2 robust z-score	G2 cells, % of GMNN control	raw share of cells in G2 (%)	activity call
TUBA1B	1	4.37	33.7	20.3	inactive
TUBA1B	2	2.82	22.8	11.2	inactive
TUBA1B	3	1.78	15.5	12.6	inactive
CLDN7	1	-0.112	2.18	3.9	inactive
CLDN7	2	0.0172	3.09	4.69	inactive
CLDN7	3	0.141	3.96	6.7	inactive
PHKA1P1	1	3.42	27.1	14	inactive
PHKA1P1	2	0.85	8.94	6.54	inactive
PHKA1P1	3	-0.594	-1.21	2.66	inactive
ADAMTSL5	1	-0.434	-0.086	3.96	inactive
ADAMTSL5	2	-0.112	2.18	4.21	inactive
ADAMTSL5	3	-0.744	-2.27	3.28	inactive
ATF2	1	9.18	67.6	29.1	active
ATF2	2	-1.22	-5.63	2.16	inactive
ATF2	3	-0.639	-1.53	4.43	inactive
HSD17B4	1	0.0305	3.18	6.89	inactive
HSD17B4	2	2.17	18.2	10.9	inactive
HSD17B4	3	-0.77	-2.45	4.15	inactive
IGFBPL1	1	4.53	34.9	18.2	inactive
IGFBPL1	2	-0.715	-2.06	3.28	inactive
IGFBPL1	3	-0.383	0.269	3.38	inactive
TMEM217	1	-0.777	-2.5	2.67	inactive
TMEM217	2	0.539	6.76	5.44	inactive
TMEM217	3	-0.281	0.989	3.51	inactive
TCEA2	1	-1.32	-6.29	2.05	inactive
TCEA2	2	-1.05	-4.41	3	inactive
TCEA2	3	0.806	8.64	7.95	inactive
OVOS1BP	1	-0.0154	2.86	4.24	inactive
OVOS1BP	2	-0.701	-1.97	2.34	inactive
OVOS1BP	3	1.54	13.8	9.22	inactive
PPP1R16A	1	-0.457	-0.247	4.72	inactive
PPP1R16A	2	-0.283	0.975	4.6	inactive
PPP1R16A	3	2.96	23.8	10.7	inactive
TMEM67	1	-0.662	-1.69	3.37	inactive
TMEM67	2	-0.273	1.04	3.33	inactive
TMEM67	3	1.44	13.1	7.07	inactive

Targets above whose gene name starts with P or p:
gene	reagent	G2 robust z-score	G2 cells, % of GMNN control	raw share of cells in G2 (%)	activity call
PHKA1P1	1	3.42	27.1	14	inactive
PHKA1P1	2	0.85	8.94	6.54	inactive
PHKA1P1	3	-0.594	-1.21	2.66	inactive
PPP1R16A	1	-0.457	-0.247	4.72	inactive
PPP1R16A	2	-0.283	0.975	4.6	inactive
PPP1R16A	3	2.96	23.8	10.7	inactive

Next records follow.
gene	reagent	G2 robust z-score	G2 cells, % of GMNN control	raw share of cells in G2 (%)	activity call
CLIC2	1	0.789	8.52	8.39	inactive
CLIC2	2	0.095	3.64	6.01	inactive
CLIC2	3	-0.397	0.177	4.44	inactive
SPTBN1	1	-0.713	-2.05	4.22	inactive
SPTBN1	2	-0.137	2	4.69	inactive
SPTBN1	3	-0.0152	2.86	4.36	inactive
STX6	1	-1.64	-8.56	0.679	inactive
STX6	2	0.406	5.82	8.58	inactive
STX6	3	2.26	18.9	11.3	inactive
GLIS1	1	1.17	11.2	6.94	inactive
GLIS1	2	-0.388	0.24	3.25	inactive
GLIS1	3	0.853	8.97	6.67	inactive
CLEC4F	1	0.221	4.52	6.6	inactive
CLEC4F	2	-0.515	-0.653	5.65	inactive
CLEC4F	3	4.13	32	16.4	inactive
GEMIN5	1	-0.439	-0.122	4.37	inactive
GEMIN5	2	-0.443	-0.153	3.87	inactive
GEMIN5	3	-0.551	-0.912	2.98	inactive
NAA38	1	-0.779	-2.51	1.64	inactive
NAA38	2	-0.772	-2.47	3.29	inactive
NAA38	3	-0.867	-3.13	2.53	inactive
KIR3DP1	1	1.38	12.7	9.07	inactive
KIR3DP1	2	-0.927	-3.55	2.12	inactive
KIR3DP1	3	0.979	9.86	7.02	inactive
NOD2	1	1.87	16.2	12.3	inactive
NOD2	2	-0.142	1.97	4.94	inactive
NOD2	3	-0.499	-0.541	4.16	inactive
MED13	1	-0.448	-0.184	3.14	inactive
MED13	2	-0.628	-1.45	4.66	inactive
MED13	3	0.303	5.1	6.82	inactive
VSIG10	1	-0.515	-0.659	3.37	inactive
VSIG10	2	0.788	8.51	7.86	inactive
VSIG10	3	0.102	3.68	4.41	inactive
SETD7	1	-0.646	-1.58	4.2	inactive
SETD7	2	-0.606	-1.29	4.89	inactive
SETD7	3	-0.969	-3.85	2.8	inactive
ARHGDIB	1	0.133	3.9	6.05	inactive
ARHGDIB	2	-0.00652	2.92	6.11	inactive
ARHGDIB	3	-0.691	-1.89	3.29	inactive
FOXC2	1	-0.893	-3.32	4	inactive
FOXC2	2	0.54	6.76	6.07	inactive
FOXC2	3	3.91	30.5	16.3	inactive
TESK1	1	-1.02	-4.21	4.22	inactive
TESK1	2	-0.68	-1.82	3.38	inactive
TESK1	3	-1.48	-7.42	2.91	inactive
NARF	1	1.28	12	11.6	inactive
NARF	2	-0.73	-2.17	3.47	inactive
NARF	3	-0.769	-2.44	3.19	inactive
ZNRF2	1	1	10	6.54	inactive
ZNRF2	2	-0.923	-3.53	1.94	inactive
ZNRF2	3	0.27	4.87	5.23	inactive
